42 sequences from PMC7819943, “Rice protein-binding microarrays: a tool to detect cis-acting elements near promoter regions in rice” can be followed below.

By UniProt entry, the sequences of proteins in these tests, tags left out.
UniProt Q0JBA9, entry or part of it: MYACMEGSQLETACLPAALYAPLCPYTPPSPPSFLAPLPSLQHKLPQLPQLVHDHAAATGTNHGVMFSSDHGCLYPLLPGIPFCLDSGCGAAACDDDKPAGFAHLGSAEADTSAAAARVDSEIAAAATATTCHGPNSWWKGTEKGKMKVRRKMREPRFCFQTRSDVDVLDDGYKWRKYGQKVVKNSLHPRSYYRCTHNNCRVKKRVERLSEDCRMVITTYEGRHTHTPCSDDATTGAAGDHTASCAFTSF

This is one part of the list.

This test concerns the target OsWRKY34 (Oryza sativa, UniProt Q0JBA9 1-250). The test can be described thus: protein-binding microarray (RPBM); PBS, 2% BSA, 51.3 ng/ul salmon testes DNA, 50 uM zinc acetate, 200 nM TF, 25 C, 1 h; high values mean tight binding. To be noted: protein: recombinant; tags: N-terminal polyhistidine and DsRed monomer fusion (pET32a); label: CyDye5-dUTP incorporated in the synthesized complementary strand; 3' TTTTT single-stranded linker to array surface; dsDNA, one strand shown. The method, boiled down: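 Using Ni–NTA, transcription factors fused N-terminally to polyhistidine and DsRed were purified after expression in E. coli BL21-CodonPlus. These were incubated at 200 nM with a blocked, double-stranded custom Agilent array for 1 h at 25 °C in a buffer containing 50 µM zinc acetate, and the array was washed. The binding signal is per-feature fluorescence intensity (arbitrary units) on an Axon 4000B scanner.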
Take “CTTTTTAGCATATGTTTGACCGTTTGTCTTATTCAAAAATCGGAGTCACCTAGTGCAG”: the binding signal was 8810 fluorescence intensity (a.u.).

Consider “GAGGCCACCACACACTCTCTCTCTCTCTCACTCACTCACTCGGAGTCACCTAGTGCAG”, for which the binding signal was 12300 fluorescence intensity (a.u.).

For the sequence “GAAGTCCATGTCATTTGCAAATTGCAATTGGTCCACGAACCGGAGTCACCTAGTGCAG”, the binding signal is 8020 fluorescence intensity (a.u.).

With “GCCGCTCCATCGCCCCAACCGCACGCCCGCCGTATGACGACGGAGTCACCTAGTGCAG”, the binding signal is 8750 fluorescence intensity (a.u.).

On to “CTGTGGTGGATAATTGGGTTCTACTGGGTGGTGTCTGGCGCGGAGTCACCTAGTGCAG”, for which the binding signal was 8370 fluorescence intensity (a.u.).

Turning to “CGATGTTGTGTTCGACGAAGGGCGAGGGTGGGTATGGGACCGGAGTCACCTAGTGCAG”, the binding signal was 10500 fluorescence intensity (a.u.).

Take “GCATACAATCCTCCCAGAGTTCCAGAACCCACAAATGCTTCGGAGTCACCTAGTGCAG”: the binding signal was 9710 fluorescence intensity (a.u.).

As to “CCTGAGCCGATCCCATCCATCCCGCGAGCGAGCGAGCGCTCGGAGTCACCTAGTGCAG”, the binding signal was 8400 fluorescence intensity (a.u.).

For “CATATTTGTCTTAGGTAAAAAATGTTCATGTTTTTTCTATCGGAGTCACCTAGTGCAG”, the binding signal is 8080 fluorescence intensity (a.u.).

“TATTTATGAGTTGCCGACTTGCCTTTTTCTTGTTAATATGCGGAGTCACCTAGTGCAG”: the binding signal was 8390 fluorescence intensity (a.u.).

As to “TCCTTTTCCACCGTGCCCGCGCGAAAAATGATCGCTCCTCCGGAGTCACCTAGTGCAG”, the binding signal is 8360 fluorescence intensity (a.u.).

With “TTTCTCCTCGATTTGTTCAGTGTTGGTCTGTTGGACACTACGGAGTCACCTAGTGCAG”, the binding signal was 9270 fluorescence intensity (a.u.).

Regarding “CGCTCACGTGCACGCCGCACGCCGCCCCGTAACCGCGTTCCGGAGTCACCTAGTGCAG”, the binding signal was 10500 fluorescence intensity (a.u.).

In the case of “ATTCTTCCTTCCGCCTCCCCGAGTCGGCCCGCTTCATCTCCGGAGTCACCTAGTGCAG”, the binding signal was 8110 fluorescence intensity (a.u.).

As to “AGCACTGGTAGATGATAATTCGGTTATACTCCGTCCGAACCGGAGTCACCTAGTGCAG”, the binding signal is 9080 fluorescence intensity (a.u.).

Regarding “ATCAAACGACCGCGCACTTTCATACACTACAGCTAGCACGCGGAGTCACCTAGTGCAG”, the binding signal is 9140 fluorescence intensity (a.u.).

In the case of “TCTTTTTCTATCATTTGATTTATTGTTAAATATACTTTTACGGAGTCACCTAGTGCAG”, the binding signal was 9380 fluorescence intensity (a.u.).

With “CCAACCACTCCATCATCATTCGCAATCCAATCTCGCTCTTCGGAGTCACCTAGTGCAG”, the binding signal was 9230 fluorescence intensity (a.u.).

“TACTACGATAATGTCTCATCATGTACTAGGTAGTTATATTCGGAGTCACCTAGTGCAG”: the binding signal was 9300 fluorescence intensity (a.u.).

For the sequence “ACATGTGTACATATAGACATCCTCCTTGCCATAACCACTTCGGAGTCACCTAGTGCAG”, the binding signal is 8490 fluorescence intensity (a.u.).

As to “TACCGGTTAAAACGCCCAAGTCAGTGGCTCTCGTCCTCCTCGGAGTCACCTAGTGCAG”, the binding signal is 8860 fluorescence intensity (a.u.).

On to “CTGTGCGGGAGGTGGAGATGGAGATGGTGGGTGGATCGGACGGAGTCACCTAGTGCAG”, for which the binding signal was 8630 fluorescence intensity (a.u.).

With “GTCTAGTATAAATCAACGCCACACCACTTGCCTAGTCATCCGGAGTCACCTAGTGCAG”, the binding signal was 8070 fluorescence intensity (a.u.).

Regarding “GGAGGGGCGGGGTGGCGCGGCGAGGCCGGCGACAAGGCCGCGGAGTCACCTAGTGCAG”, the binding signal was 9130 fluorescence intensity (a.u.).

As for “TAATGCTCCACCACGCCGCCACGCGCTCGATTTCACTCGCCGGAGTCACCTAGTGCAG”, the binding signal was 9400 fluorescence intensity (a.u.).

Take “TGACAAGTTTCATGTTTATATTTAGGATGCTACACACTTTCGGAGTCACCTAGTGCAG”: the binding signal is 10800 fluorescence intensity (a.u.).

With “AACAGAAACATCCTCGTCAGCCGATCTGTTCACCAGTCTCCGGAGTCACCTAGTGCAG”, the binding signal is 9480 fluorescence intensity (a.u.).

With “TACTACTCTTGTTTGTGTTTCCACACACTTCACCGGGTCTCGGAGTCACCTAGTGCAG”, the binding signal is 8170 fluorescence intensity (a.u.).

Take “CAACGTGATACTCTCCCACGCCACCGCCATCGAGATATACCGGAGTCACCTAGTGCAG”: the binding signal is 8810 fluorescence intensity (a.u.).

“GATTTTTGCATGTTTTACCTCTGTTTAAATTTGAACCAACCGGAGTCACCTAGTGCAG”: the binding signal is 10000 fluorescence intensity (a.u.).

Take “AGTTTGGTGGAAGGTTGCCAATGGTTTGTACTCTGATTATCGGAGTCACCTAGTGCAG”: the binding signal was 8220 fluorescence intensity (a.u.).

Turning to “TAACAGGGAAAAGAACAAGAGCCCATAATTTATTTCATTTCGGAGTCACCTAGTGCAG”, the binding signal was 8050 fluorescence intensity (a.u.).

“CTCCTCGCTTTCCATTCCATTCAACCATCTCAATCAATCTCGGAGTCACCTAGTGCAG”: the binding signal was 9250 fluorescence intensity (a.u.).

Turning to “CACTTGTTGTCTATTACATGTGGGTCCTCATGTGCCTATACGGAGTCACCTAGTGCAG”, the binding signal is 8090 fluorescence intensity (a.u.).

As to “GTGTGTTGGGTTCGGTTCGCTTGGCCGCCTCCGCCTCCGCCGGAGTCACCTAGTGCAG”, the binding signal is 12400 fluorescence intensity (a.u.).

As to “CACTATCGGCAGTGCAGCCGGCGGCTGGGGCGGGGAGTACCGGAGTCACCTAGTGCAG”, the binding signal was 9540 fluorescence intensity (a.u.).

Consider “AGTACATGGGCTTTCCATAATTGGTTTATACGTGGTTATTCGGAGTCACCTAGTGCAG”, for which the binding signal was 8260 fluorescence intensity (a.u.).

As to “GCCGCACTATAAATTAGTCATGCACAGTTGCATCCATGGCCGGAGTCACCTAGTGCAG”, the binding signal is 8120 fluorescence intensity (a.u.).

As for “TTGATTTTTTTCCCAGTCAAACTCTATTAAATTTGACTAACGGAGTCACCTAGTGCAG”, the binding signal is 9340 fluorescence intensity (a.u.).

For “ACCGCCGCATCCCGTCCATCCGGCCGGCCGGCGGCCGCCACGGAGTCACCTAGTGCAG”, the binding signal was 9870 fluorescence intensity (a.u.).

“GTGTTGTATACTATTGCATGATCTTTATAATTTCTTTGTTCGGAGTCACCTAGTGCAG”: the binding signal is 12600 fluorescence intensity (a.u.).

On to “CCCCATCTGATCTCACAAACATTATTTCTCTCTCTTTTTTCGGAGTCACCTAGTGCAG”, for which the binding signal was 9020 fluorescence intensity (a.u.).
